# From the supplement of paper PMC8728848
# This is one part of the list.
# B1: MFG-E8 (Mus musculus), P21956 (protein)
# chain: MQVSRVLAALCGMLLCASGLFAASGDFCDSSLCLNGGTCLTGQDNDIYCLCPEGFTGLVCNETERGPCSPNPCYNDAKCLVTLDTQRGDIFTEYICQCPVGYSGIHCETETNYYNLDGEYMFTTAVPNTAVPTPAPTPDLSNNLASRCSTQLGMEGGAIADSQISASSVYMGFMGLQRWGPELARLYRTGIVNAWTASNYDSKPWIQVNLLRKMRVSGVMTQGASRAGRAEYLKTFKVAYSLDGRKFEFIQDESGGDKEFLGNLDNNSLKVNMFNPTLEAQYIKLYPVSCHRGCTLRFELLGCELHGCSEPLGLKNNTIPDSQMSASSSYKTWNLRAFGWYPHLGRLDNQGKINAWTAQSNSAKEWLQVDLGTQRQVTGIITQGARDFGHIQYVASYKVAHSDDGVQWTVYEEQGSSKVFQGNLDNNSHKKNIFEKPFMARYVRVLPVSWHNRITLRLELLGC
# Tests used:
# Assay in all cases: glycan array binding signal (z-score within array); higher = stronger binding
# Conditions in all cases: glycan notation: IUPAC condensed, linker removed
# [1] = biological target: Gal(b1-4)GlcNAc(a1-6)Gal(b1-4)GlcNAc
# Method in brief: (§1)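 The Consortium for Functional Glycomics database supplied 3228 glycan arrays, of which those lacking an available protein sequence were dropped. The binding signal, a within-array Z-score, was averaged across arrays of the same protein sequence and across linkers. Negative scores can be read as non-binding.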
# Gal(b1-4)GlcNAc(b1-2)Man = biological target: Gal(b1-4)GlcNAc(b1-2)Man
# Method in brief: as §1
# [2] = biological target: Gal(b1-4)GlcNAc(b1-2)Man(a1-3)Man(b1-4)GlcNAc(b1-4)GlcNAc
# Method in brief: as §1
# [3] = biological target: Gal(b1-4)GlcNAc(b1-2)Man(a1-3)[Gal(b1-4)GlcNAc(b1-2)Man(a1-6)]Man(b1-4)GlcNAc(b1-4)GlcNAc
# Method in brief: as §1
# [4] = biological target: Gal(b1-4)GlcNAc(b1-2)Man(a1-3)[Gal(b1-4)GlcNAc(b1-2)Man(a1-6)]Man(b1-4)GlcNAc(b1-4)[Fuc(a1-6)]GlcNAc
# Method in brief: as §1
# [5] = biological target: Gal(b1-4)GlcNAc(b1-2)Man(a1-3)[Gal(b1-4)GlcNAc(b1-2)Man(a1-6)][Gal(b1-4)GlcNAc(b1-4)]Man(b1-4)GlcNAc(b1-4)[Fuc(a1-6)]GlcNAc
# Method in brief: as §1
# [6] = biological target: Gal(b1-4)GlcNAc(b1-2)Man(a1-3)[Gal(b1-4)GlcNAc(b1-2)Man(a1-6)][GlcNAc(b1-4)]Man(b1-4)GlcNAc(b1-4)[Fuc(a1-6)]GlcNAc
# Method in brief: as §1
# [7] = biological target: Gal(b1-4)GlcNAc(b1-2)Man(a1-3)[Gal(b1-4)GlcNAc(b1-2)][GlcNAc(b1-4)]Man(b1-4)GlcNAc(b1-4)GlcNAc
# Method in brief: as §1
# [8] = biological target: Gal(b1-4)GlcNAc(b1-2)Man(a1-3)[GlcNAc(b1-2)Man(a1-6)]Man(b1-4)GlcNAc(b1-4)GlcNAc
# Method in brief: as §1
# [9] = biological target: Gal(b1-4)GlcNAc(b1-2)Man(a1-3)[GlcNAc(b1-4)][Gal(b1-4)GlcNAc(b1-2)Man(a1-6)]Man(b1-4)GlcNAc(b1-4)GlcNAc
# Method in brief: as §1
# [10] = biological target: Gal(b1-4)GlcNAc(b1-2)Man(a1-3)[Man(a1-6)]Man(b1-4)GlcNAc(b1-4)GlcNAc
# Method in brief: as §1
# [11] = biological target: Gal(b1-4)GlcNAc(b1-2)Man(a1-6)Man(b1-4)GlcNAc(b1-4)GlcNAc
# Method in brief: as §1
# [12] = biological target: Gal(b1-4)GlcNAc(b1-2)Man(a1-6)[GlcNAc(b1-2)Man(a1-3)]Man(b1-4)GlcNAc(b1-4)GlcNAc
# Method in brief: as §1
# [13] = biological target: Gal(b1-4)GlcNAc(b1-2)Man(a1-6)[Man(a1-3)]Man(b1-4)GlcNAc(b1-4)GlcNAc
# Method in brief: as §1
# [14] = biological target: Gal(b1-4)GlcNAc(b1-2)[Gal(b1-4)GlcNAc(b1-4)]Man(a1-3)[Gal(b1-4)GlcNAc(b1-2)Man(a1-6)]Man(b1-4)GlcNAc(b1-4)GlcNAc
# Method in brief: as §1
# [15] = biological target: Gal(b1-4)GlcNAc(b1-2)[Gal(b1-4)GlcNAc(b1-4)]Man(a1-3)[Gal(b1-4)GlcNAc(b1-2)[Gal(b1-4)GlcNAc(b1-6)]Man(a1-6)]Man(b1-4)GlcNAc(b1-4)GlcNAc
# Method in brief: as §1
# [16] = biological target: Gal(b1-4)GlcNAc(b1-2)[Gal(b1-4)GlcNAc(b1-4)]Man(a1-3)[GlcNAc(b1-4)][Gal(b1-4)GlcNAc(b1-2)Man(a1-6)]Man(b1-4)GlcNAc(b1-4)GlcNAc
# Method in brief: as §1
# [17] = biological target: Gal(b1-4)GlcNAc(b1-2)[Gal(b1-4)GlcNAc(b1-4)]Man(a1-3)[GlcNAc(b1-4)][Gal(b1-4)GlcNAc(b1-2)[Gal(b1-4)GlcNAc(b1-6)]Man(a1-6)]Man(b1-4)GlcNAc(b1-4)GlcNAc
# Method in brief: as §1
# [18] = biological target: Gal(b1-4)GlcNAc(b1-2)[Gal(b1-4)GlcNAc(b1-6)]Man(a1-6)[Gal(b1-4)GlcNAc(b1-2)Man(a1-3)]Man(b1-4)GlcNAc(b1-4)GlcNAc
# Method in brief: as §1
# [19] = biological target: Gal(b1-4)GlcNAc(b1-2)[Gal(b1-4)GlcNAc(b1-6)]Man(a1-6)[Gal(b1-4)GlcNAc(b1-2)Man(a1-3)]Man(b1-4)GlcNAc(b1-4)[Fuc(a1-6)]GlcNAc
# Method in brief: as §1
# [20] = biological target: Gal(b1-4)GlcNAc(b1-2)[Gal(b1-4)GlcNAc(b1-6)]Man(a1-6)[GlcNAc(b1-4)][Gal(b1-4)GlcNAc(b1-2)Man(a1-3)]Man(b1-4)GlcNAc(b1-4)GlcNAc
# Method in brief: as §1
# [21] = biological target: Gal(b1-4)GlcNAc(b1-2)[Gal(b1-4)GlcNAc(b1-6)]Man(a1-6)[GlcNAc(b1-4)][Gal(b1-4)GlcNAc(b1-2)[Gal(b1-4)GlcNAc(b1-4)]Man(a1-3)]Man(b1-4)GlcNAc(b1-4)[Fuc(a1-6)]GlcNAc
# Method in brief: as §1
# [22] = biological target: Gal(b1-4)GlcNAc(b1-3)Gal(b1-3)GalNAc
# Method in brief: as §1
# [23] = biological target: Gal(b1-4)GlcNAc(b1-3)Gal(b1-3)GlcNAc
# Method in brief: as §1
# [24] = biological target: Gal(b1-4)GlcNAc(b1-3)Gal(b1-4)Glc
# Method in brief: as §1
# [25] = biological target: Gal(b1-4)GlcNAc(b1-3)Gal(b1-4)GlcNAc
# Method in brief: as §1
# [26] = biological target: Gal(b1-4)GlcNAc(b1-3)Gal(b1-4)GlcNAc(b1-2)Man(a1-3)[Gal(b1-4)GlcNAc(b1-3)Gal(b1-4)GlcNAc(b1-2)Man(a1-6)]Man(b1-4)GlcNAc(b1-4)GlcNAc
# Method in brief: as §1
# [27] = biological target: Gal(b1-4)GlcNAc(b1-3)Gal(b1-4)GlcNAc(b1-2)Man(a1-3)[Gal(b1-4)GlcNAc(b1-3)Gal(b1-4)GlcNAc(b1-2)Man(a1-6)]Man(b1-4)GlcNAc(b1-4)[Fuc(a1-6)]GlcNAc
# Method in brief: as §1
# [28] = biological target: Gal(b1-4)GlcNAc(b1-3)Gal(b1-4)GlcNAc(b1-2)[Gal(b1-4)GlcNAc(b1-3)Gal(b1-4)GlcNAc(b1-6)]Man(a1-6)[Gal(b1-4)GlcNAc(b1-3)Gal(b1-4)GlcNAc(b1-2)Man(a1-3)]Man(b1-4)GlcNAc(b1-4)GlcNAc
# Method in brief: as §1
# [29] = biological target: Gal(b1-4)GlcNAc(b1-3)Gal(b1-4)GlcNAc(b1-2)[Gal(b1-4)GlcNAc(b1-3)Gal(b1-4)GlcNAc(b1-6)]Man(a1-6)[Gal(b1-4)GlcNAc(b1-3)Gal(b1-4)GlcNAc(b1-2)Man(a1-3)]Man(b1-4)GlcNAc(b1-4)[Fuc(a1-6)]GlcNAc
# Method in brief: as §1
# [30] = biological target: Gal(b1-4)GlcNAc(b1-3)Gal(b1-4)GlcNAc(b1-3)Gal(b1-4)GlcNAc
# Method in brief: as §1
# [31] = biological target: Gal(b1-4)GlcNAc(b1-3)Gal(b1-4)GlcNAc(b1-3)Gal(b1-4)GlcNAc(b1-2)Man(a1-3)[Gal(b1-4)GlcNAc(b1-3)Gal(b1-4)GlcNAc(b1-3)Gal(b1-4)GlcNAc(b1-2)Man(a1-6)]Man(b1-4)GlcNAc(b1-4)GlcNAc
# Method in brief: as §1
# [32] = biological target: Gal(b1-4)GlcNAc(b1-3)Gal(b1-4)GlcNAc(b1-3)Gal(b1-4)GlcNAc(b1-2)Man(a1-3)[Gal(b1-4)GlcNAc(b1-3)Gal(b1-4)GlcNAc(b1-3)Gal(b1-4)GlcNAc(b1-2)Man(a1-6)]Man(b1-4)GlcNAc(b1-4)[Fuc(a1-6)]GlcNAc
# Method in brief: as §1
# [33] = biological target: Gal(b1-4)GlcNAc(b1-3)Gal(b1-4)GlcNAc(b1-3)Gal(b1-4)GlcNAc(b1-2)[Gal(b1-4)GlcNAc(b1-3)Gal(b1-4)GlcNAc(b1-3)Gal(b1-4)GlcNAc(b1-6)]Man(a1-6)[Gal(b1-4)GlcNAc(b1-3)Gal(b1-4)GlcNAc(b1-3)Gal(b1-4)GlcNAc(b1-2)Man(a1-3)]Man(b1-4)GlcNAc(b1-4)[Fuc(a1-6)]GlcNAc
# Method in brief: as §1
# [34] = biological target: Gal(b1-4)GlcNAc(b1-3)Gal(b1-4)GlcNAc(b1-3)Gal(b1-4)GlcNAc(b1-3)Gal(b1-4)GlcNAc(b1-2)Man(a1-3)[Gal(b1-4)GlcNAc(b1-3)Gal(b1-4)GlcNAc(b1-3)Gal(b1-4)GlcNAc(b1-3)Gal(b1-4)GlcNAc(b1-2)Man(a1-6)]Man(b1-4)GlcNAc(b1-4)GlcNAc
# Method in brief: as §1
# [35] = biological target: Gal(b1-4)GlcNAc(b1-3)Gal(b1-4)GlcNAc(b1-3)Gal(b1-4)GlcNAc(b1-3)Gal(b1-4)GlcNAc(b1-2)Man(a1-3)[Gal(b1-4)GlcNAc(b1-3)Gal(b1-4)GlcNAc(b1-3)Gal(b1-4)GlcNAc(b1-3)Gal(b1-4)GlcNAc(b1-2)Man(a1-6)]Man(b1-4)GlcNAc(b1-4)[Fuc(a1-6)]GlcNAc
# Method in brief: as §1
# [36] = biological target: Gal(b1-4)GlcNAc(b1-3)Gal(b1-4)GlcNAc(b1-3)Gal(b1-4)GlcNAc(b1-3)Gal(b1-4)GlcNAc(b1-2)[Gal(b1-4)GlcNAc(b1-3)Gal(b1-4)GlcNAc(b1-3)Gal(b1-4)GlcNAc(b1-3)Gal(b1-4)GlcNAc(b1-6)]Man(a1-6)[Gal(b1-4)GlcNAc(b1-3)Gal(b1-4)GlcNAc(b1-3)Gal(b1-4)GlcNAc(b1-3)Gal(b1-4)GlcNAc(b1-2)Man(a1-3)]Man(b1-4)GlcNAc(b1-4)[Fuc(a1-6)]GlcNAc
# Method in brief: as §1
binder,measurement,setting,value
B1,glycan array binding signal (z-score),[1],-0.24
same,glycan array binding signal (z-score),Gal(b1-4)GlcNAc(b1-2)Man,-0.513
same,glycan array binding signal (z-score),[2],-0.078
same,glycan array binding signal (z-score),[3],0.193
same,glycan array binding signal (z-score),[4],0.021
same,glycan array binding signal (z-score),[5],0.343
same,glycan array binding signal (z-score),[6],-0.591
same,glycan array binding signal (z-score),[7],0.278
same,glycan array binding signal (z-score),[8],0.763
same,glycan array binding signal (z-score),[9],-0.341
same,glycan array binding signal (z-score),[10],-0.504
same,glycan array binding signal (z-score),[11],-0.372
same,glycan array binding signal (z-score),[12],-0.429
same,glycan array binding signal (z-score),[13],-0.64
same,glycan array binding signal (z-score),[14],-0.348
same,glycan array binding signal (z-score),[15],-0.913
same,glycan array binding signal (z-score),[16],0.139
same,glycan array binding signal (z-score),[17],-0.423
same,glycan array binding signal (z-score),[18],1.14
same,glycan array binding signal (z-score),[19],-0.69
same,glycan array binding signal (z-score),[20],0.293
same,glycan array binding signal (z-score),[21],-0.238
same,glycan array binding signal (z-score),[22],-0.19
same,glycan array binding signal (z-score),[23],-0.819
same,glycan array binding signal (z-score),[24],-0.286
same,glycan array binding signal (z-score),[25],0.082
same,glycan array binding signal (z-score),[26],2.48
same,glycan array binding signal (z-score),[27],1.25
same,glycan array binding signal (z-score),[28],-0.361
same,glycan array binding signal (z-score),[29],0.176
same,glycan array binding signal (z-score),[30],-0.102
same,glycan array binding signal (z-score),[31],0.078
same,glycan array binding signal (z-score),[32],-0.153
same,glycan array binding signal (z-score),[33],-0.06
same,glycan array binding signal (z-score),[34],-0.267
same,glycan array binding signal (z-score),[35],0.631
same,glycan array binding signal (z-score),[36],0.053

# Reprinted at random: 3 records from the list, in no set order.
binder,measurement,setting,value
B1,glycan array binding signal (z-score),[20],0.293
same,glycan array binding signal (z-score),[17],-0.423
same,glycan array binding signal (z-score),[2],-0.078
